Results from PMC4511861.
No constants are given. Whether binding was seen depends on the method and setting. Binding seen in cells or lysates may run through a third protein. Some binding calls cover weakened binding; strength is not graded here. Tags and fused reporters may be left off the sequences shown.

Chains of the proteins cited; added tags and fusions are not shown. Lines headed by an entry give the natural chain unless they say otherwise; changes in a name come on top. A line that says so, or that is headed by a name, gives the form on record, which may keep a tag or linker.
UniProt P0DMV8: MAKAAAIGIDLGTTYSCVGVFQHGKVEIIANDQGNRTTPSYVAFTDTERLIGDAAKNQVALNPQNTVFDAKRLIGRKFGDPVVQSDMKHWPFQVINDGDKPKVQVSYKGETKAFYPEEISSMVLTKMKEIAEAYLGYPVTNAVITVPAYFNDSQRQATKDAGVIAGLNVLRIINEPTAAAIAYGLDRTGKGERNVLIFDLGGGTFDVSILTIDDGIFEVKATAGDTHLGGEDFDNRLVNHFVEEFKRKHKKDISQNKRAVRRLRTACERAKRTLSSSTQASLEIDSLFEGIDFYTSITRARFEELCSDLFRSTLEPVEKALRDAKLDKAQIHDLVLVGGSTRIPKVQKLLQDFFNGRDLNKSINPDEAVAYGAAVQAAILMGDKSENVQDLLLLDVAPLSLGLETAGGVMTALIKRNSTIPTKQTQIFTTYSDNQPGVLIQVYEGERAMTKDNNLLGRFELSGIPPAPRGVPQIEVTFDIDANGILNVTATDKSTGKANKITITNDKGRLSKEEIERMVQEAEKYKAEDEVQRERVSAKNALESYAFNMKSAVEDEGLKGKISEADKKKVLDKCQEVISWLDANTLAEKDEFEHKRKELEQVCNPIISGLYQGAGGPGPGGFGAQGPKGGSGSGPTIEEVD
UniProt P23443: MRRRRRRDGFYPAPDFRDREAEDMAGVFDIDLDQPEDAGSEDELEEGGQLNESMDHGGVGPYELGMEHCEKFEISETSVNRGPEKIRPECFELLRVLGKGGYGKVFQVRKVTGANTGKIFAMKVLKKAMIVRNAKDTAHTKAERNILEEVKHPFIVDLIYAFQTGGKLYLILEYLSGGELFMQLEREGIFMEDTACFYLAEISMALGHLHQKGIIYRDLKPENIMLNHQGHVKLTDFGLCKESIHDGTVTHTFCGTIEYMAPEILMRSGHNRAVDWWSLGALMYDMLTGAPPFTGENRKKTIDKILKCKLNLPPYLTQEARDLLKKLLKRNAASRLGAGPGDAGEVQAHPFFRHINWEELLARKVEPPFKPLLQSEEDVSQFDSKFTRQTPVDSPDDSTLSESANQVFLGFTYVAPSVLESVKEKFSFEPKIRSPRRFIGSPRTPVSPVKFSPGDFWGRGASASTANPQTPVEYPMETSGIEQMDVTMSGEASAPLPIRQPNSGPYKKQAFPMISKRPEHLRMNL
UniProt P27708: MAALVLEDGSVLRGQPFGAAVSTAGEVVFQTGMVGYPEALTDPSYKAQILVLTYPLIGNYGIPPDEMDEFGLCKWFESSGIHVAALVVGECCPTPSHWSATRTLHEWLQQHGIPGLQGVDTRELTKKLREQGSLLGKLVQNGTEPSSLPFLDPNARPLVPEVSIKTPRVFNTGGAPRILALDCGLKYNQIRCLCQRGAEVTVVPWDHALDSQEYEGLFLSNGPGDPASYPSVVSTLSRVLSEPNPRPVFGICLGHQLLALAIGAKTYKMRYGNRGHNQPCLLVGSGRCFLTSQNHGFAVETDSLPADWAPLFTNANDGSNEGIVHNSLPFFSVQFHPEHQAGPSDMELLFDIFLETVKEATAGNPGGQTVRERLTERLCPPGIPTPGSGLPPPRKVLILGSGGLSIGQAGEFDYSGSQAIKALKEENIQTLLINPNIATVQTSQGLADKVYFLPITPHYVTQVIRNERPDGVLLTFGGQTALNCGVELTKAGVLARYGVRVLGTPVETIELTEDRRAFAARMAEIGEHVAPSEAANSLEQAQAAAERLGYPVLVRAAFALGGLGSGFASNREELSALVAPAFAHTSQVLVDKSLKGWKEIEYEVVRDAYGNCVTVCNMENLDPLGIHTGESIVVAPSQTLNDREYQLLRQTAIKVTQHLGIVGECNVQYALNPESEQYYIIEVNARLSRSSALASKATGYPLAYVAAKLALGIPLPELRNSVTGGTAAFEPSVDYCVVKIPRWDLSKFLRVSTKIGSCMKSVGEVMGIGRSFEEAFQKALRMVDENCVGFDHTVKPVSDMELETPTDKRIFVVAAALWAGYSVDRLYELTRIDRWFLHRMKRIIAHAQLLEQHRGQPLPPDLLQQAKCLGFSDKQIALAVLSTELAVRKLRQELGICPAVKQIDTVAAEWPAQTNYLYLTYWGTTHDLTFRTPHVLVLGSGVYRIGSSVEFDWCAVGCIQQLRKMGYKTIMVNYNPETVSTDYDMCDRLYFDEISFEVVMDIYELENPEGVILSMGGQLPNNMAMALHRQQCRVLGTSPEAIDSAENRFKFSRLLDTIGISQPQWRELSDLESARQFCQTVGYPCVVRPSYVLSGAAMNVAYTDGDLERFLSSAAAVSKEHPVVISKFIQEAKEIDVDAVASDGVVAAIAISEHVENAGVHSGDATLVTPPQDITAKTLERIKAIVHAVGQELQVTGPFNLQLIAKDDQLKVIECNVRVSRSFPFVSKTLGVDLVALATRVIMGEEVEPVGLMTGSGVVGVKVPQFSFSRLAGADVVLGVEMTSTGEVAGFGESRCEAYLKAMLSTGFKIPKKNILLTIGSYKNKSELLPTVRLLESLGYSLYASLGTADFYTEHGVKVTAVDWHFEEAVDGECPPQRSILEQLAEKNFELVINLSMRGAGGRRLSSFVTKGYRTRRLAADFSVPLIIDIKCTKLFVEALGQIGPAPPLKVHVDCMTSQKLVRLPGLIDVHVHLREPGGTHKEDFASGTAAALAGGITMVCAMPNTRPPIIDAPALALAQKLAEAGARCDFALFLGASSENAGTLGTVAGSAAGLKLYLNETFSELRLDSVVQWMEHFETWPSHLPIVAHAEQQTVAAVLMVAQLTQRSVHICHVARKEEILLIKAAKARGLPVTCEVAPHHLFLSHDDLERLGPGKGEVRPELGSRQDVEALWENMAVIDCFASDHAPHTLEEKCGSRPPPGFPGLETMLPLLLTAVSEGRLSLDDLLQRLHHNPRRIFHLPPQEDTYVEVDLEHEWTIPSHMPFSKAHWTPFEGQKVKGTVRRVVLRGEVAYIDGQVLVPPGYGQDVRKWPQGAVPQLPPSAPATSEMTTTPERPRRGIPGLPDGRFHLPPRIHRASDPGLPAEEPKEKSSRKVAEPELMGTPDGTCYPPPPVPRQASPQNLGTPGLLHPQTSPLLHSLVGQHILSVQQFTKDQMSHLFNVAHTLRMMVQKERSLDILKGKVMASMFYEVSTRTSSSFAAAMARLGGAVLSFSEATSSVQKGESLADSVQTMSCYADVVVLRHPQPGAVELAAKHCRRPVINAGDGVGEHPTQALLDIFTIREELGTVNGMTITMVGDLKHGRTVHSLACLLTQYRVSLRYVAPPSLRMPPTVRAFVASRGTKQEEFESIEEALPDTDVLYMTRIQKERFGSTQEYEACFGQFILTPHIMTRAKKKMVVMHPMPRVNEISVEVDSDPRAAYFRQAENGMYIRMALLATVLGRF
CAD Ser1859 to alanine (P27708, form named): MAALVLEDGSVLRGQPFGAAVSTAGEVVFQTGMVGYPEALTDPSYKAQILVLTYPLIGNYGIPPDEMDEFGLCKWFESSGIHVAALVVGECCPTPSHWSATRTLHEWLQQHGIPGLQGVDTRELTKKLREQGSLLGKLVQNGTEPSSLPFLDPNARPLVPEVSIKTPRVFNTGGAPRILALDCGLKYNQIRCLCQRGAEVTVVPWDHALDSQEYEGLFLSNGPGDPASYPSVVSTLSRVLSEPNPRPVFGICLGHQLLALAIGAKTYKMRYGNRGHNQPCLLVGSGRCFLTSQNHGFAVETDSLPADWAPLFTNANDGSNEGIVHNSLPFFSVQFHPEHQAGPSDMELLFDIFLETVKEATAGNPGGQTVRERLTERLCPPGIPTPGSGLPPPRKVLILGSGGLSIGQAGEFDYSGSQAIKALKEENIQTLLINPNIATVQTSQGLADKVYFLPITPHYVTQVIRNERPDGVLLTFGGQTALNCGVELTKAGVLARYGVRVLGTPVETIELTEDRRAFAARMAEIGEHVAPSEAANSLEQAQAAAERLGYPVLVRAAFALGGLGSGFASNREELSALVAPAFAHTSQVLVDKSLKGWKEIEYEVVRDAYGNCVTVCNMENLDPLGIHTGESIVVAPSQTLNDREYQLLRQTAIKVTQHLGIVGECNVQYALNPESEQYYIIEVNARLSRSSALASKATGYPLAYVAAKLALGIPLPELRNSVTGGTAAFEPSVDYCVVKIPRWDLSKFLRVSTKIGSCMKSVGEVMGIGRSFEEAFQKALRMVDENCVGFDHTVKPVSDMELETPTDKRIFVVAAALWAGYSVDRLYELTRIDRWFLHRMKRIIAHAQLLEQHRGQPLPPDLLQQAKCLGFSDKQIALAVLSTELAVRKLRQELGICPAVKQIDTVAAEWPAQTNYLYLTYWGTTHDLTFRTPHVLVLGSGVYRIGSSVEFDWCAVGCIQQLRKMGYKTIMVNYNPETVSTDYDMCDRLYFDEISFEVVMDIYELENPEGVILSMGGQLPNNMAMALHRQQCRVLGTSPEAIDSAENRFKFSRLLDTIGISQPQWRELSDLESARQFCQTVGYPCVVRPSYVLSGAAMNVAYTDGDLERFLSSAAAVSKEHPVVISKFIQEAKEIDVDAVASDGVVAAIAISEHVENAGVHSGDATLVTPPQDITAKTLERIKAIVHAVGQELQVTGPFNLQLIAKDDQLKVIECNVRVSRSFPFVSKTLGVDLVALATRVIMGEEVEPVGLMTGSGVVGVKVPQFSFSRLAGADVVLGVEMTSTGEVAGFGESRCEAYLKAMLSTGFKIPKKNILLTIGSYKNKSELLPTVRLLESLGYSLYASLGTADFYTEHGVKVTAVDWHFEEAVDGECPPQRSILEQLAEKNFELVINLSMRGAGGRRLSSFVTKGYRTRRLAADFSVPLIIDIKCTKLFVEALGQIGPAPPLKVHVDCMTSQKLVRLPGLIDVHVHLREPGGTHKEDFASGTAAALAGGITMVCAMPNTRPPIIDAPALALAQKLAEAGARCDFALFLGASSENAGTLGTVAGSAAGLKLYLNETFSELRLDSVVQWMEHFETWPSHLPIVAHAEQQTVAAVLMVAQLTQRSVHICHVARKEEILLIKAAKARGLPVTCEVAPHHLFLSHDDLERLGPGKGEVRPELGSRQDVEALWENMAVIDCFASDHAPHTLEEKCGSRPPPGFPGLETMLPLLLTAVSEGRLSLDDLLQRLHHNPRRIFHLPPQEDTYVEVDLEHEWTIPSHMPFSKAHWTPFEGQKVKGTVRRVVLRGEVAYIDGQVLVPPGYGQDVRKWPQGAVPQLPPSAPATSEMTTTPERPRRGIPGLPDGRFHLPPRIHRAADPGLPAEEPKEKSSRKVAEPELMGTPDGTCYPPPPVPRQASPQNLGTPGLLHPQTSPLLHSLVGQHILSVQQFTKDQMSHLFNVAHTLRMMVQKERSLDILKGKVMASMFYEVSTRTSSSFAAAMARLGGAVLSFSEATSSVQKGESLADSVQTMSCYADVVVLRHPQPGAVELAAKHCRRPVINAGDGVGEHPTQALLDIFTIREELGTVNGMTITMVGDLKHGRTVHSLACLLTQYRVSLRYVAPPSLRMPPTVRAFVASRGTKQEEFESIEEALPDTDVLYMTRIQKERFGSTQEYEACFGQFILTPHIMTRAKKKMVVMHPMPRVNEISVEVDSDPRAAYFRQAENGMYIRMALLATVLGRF
UniProt P23258: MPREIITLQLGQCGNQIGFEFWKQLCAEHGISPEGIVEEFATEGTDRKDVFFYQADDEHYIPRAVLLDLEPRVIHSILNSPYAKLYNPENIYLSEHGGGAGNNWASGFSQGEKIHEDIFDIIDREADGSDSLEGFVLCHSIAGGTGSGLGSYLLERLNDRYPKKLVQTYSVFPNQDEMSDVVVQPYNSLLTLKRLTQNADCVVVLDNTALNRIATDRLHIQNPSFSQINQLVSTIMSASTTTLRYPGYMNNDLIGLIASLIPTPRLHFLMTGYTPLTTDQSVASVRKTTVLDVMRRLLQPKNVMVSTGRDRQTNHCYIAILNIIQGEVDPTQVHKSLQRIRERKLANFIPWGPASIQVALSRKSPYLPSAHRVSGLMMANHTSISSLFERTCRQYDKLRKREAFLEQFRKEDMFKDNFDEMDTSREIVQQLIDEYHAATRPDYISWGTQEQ

T1: N-terminal FLAG-WDR73 wild-type fusion protein (human), Q6P4I2
T1 chain: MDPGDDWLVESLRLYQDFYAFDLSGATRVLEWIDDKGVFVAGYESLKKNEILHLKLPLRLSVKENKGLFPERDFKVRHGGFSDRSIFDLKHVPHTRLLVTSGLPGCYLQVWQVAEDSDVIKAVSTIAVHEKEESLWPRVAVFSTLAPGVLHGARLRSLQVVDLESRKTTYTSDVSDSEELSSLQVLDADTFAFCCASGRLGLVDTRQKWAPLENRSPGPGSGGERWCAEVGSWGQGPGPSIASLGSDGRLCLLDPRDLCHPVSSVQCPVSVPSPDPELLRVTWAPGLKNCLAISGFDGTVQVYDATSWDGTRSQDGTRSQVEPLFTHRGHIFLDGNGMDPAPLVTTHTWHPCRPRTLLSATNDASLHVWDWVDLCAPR

T2: N-terminal FLAG-WDR73 wild-type fusion protein (human) (UniProt Q6P4I2)
T2 sequence: T1 chain

B1: β-tubulin 4B (TUBB4B), P68371 1-445 (protein)
chain: MREIVHLQAGQCGNQIGAKFWEVISDEHGIDPTGTYHGDSDLQLERINVYYNEATGGKYVPRAVLVDLEPGTMDSVRSGPFGQIFRPDNFVFGQSGAGNNWAKGHYTEGAELVDSVLDVVRKEAESCDCLQGFQLTHSLGGGTGSGMGTLLISKIREEYPDRIMNTFSVVPSPKVSDTVVEPYNATLSVHQLVENTDETYCIDNEALYDICFRTLKLTTPTYGDLNHLVSATMSGVTTCLRFPGQLNADLRKLAVNMVPFPRLHFFMPGFAPLTSRGSQQYRALTVPELTQQMFDAKNMMAACDPRHGRYLTVAAVFRGRMSMKEVDEQMLNVQNKNSSYFVEWIPNNVKTAVCDIPPRGLKMSATFIGNSTAIQELFKRISEQFTAMFRRKAFLHWYTGEGMDEMEFTEAESNMNDLVSEYQQYQDATAEEEGEFEEEAEEEVA

Target: T1, N-terminal FLAG-WDR73 wild-type fusion …
Assay: co-IP; FLAG-WDR73 constructs overexpressed in HEK-293T; clarified lysate on anti-FLAG M2 affinity gel 2 h at 4°C, 3-4 washes of 15 min with 2.5-5% Tween-20, elution with 3x FLAG peptide; endogenous partners detected by immunoblot
Conditions: remark: other sources report otherwise

| binding | Molecule |
| --- | --- |
| binds | B1 |

target: T2, N-terminal FLAG-WDR73 wild-type fusion protein (human); assay: as above; conditions: not given

| binding | Molecule |
| --- | --- |
| binds | heat shock 70-kDa protein 1A/1B (HSP-70) (from UniProt P0DMV8 1-641) |
| binds | p70 S6 kinase (RPS6KB1) (from UniProt P23443 1-525) (enzyme) |
| binds | phospho-Ser1859 CAD, endogenous (from UniProt P27708 1-2225) (enzyme) |
| binds | CAD (carbamoyl-phosphate synthetase 2, aspartate transcarbamylase, and dihydroorotase), endogenous (from UniProt P27708 1-2225) (enzyme) |
| binds | heat shock protein HSP90 alpha isoform 2 (HSP-90) (from UniProt P07900 1-732) |
| binds | γ-tubulin (TUBG1) (from UniProt P23258 1-451) |

target: T2, N-terminal FLAG-WDR73 wild-type fusion protein (human); assay: co-IP; FLAG-WDR73 and recombinant CAD construct co-overexpressed in HEK-293T; anti-FLAG M2 affinity gel, elution with 3x FLAG peptide, immunoblot; conditions: not given

| binding | Molecule |
| --- | --- |
| binds | recombinant C-terminal V5 CAD fusion protein (from UniProt P27708 1-2225) (enzyme) |
| binds | CAD Ser1859 to alanine (from UniProt P27708 1-2225) (enzyme) |
